Results are given in words; binding and its absence hold for the method and conditions named. Some binding calls cover weakened binding; strength is not graded here. Each block holds one binder with its values, some of them ahead of it.
Molecular target: T1, recombinant CDH17-hFc (human) (UniProt Q12864)
T1 sequence (looked up): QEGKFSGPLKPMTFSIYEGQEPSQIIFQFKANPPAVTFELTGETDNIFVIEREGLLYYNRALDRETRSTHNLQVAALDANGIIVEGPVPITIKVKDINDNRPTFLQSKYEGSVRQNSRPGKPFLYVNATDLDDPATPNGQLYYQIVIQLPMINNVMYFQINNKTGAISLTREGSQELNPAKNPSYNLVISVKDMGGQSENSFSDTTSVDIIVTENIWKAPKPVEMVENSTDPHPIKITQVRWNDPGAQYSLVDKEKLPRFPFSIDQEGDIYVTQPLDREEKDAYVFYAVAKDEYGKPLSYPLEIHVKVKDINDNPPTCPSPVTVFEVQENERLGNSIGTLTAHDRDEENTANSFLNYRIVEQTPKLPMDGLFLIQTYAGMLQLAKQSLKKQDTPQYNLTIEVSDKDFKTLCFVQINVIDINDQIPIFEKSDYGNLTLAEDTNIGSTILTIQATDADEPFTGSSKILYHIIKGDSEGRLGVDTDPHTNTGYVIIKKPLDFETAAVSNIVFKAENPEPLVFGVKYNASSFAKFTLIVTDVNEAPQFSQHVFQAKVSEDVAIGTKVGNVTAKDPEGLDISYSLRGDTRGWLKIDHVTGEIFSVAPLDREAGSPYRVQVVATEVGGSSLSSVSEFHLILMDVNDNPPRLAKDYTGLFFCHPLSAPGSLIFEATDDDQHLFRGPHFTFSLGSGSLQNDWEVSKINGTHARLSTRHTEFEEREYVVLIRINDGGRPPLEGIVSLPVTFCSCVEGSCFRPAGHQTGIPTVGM
Experiment: domain-mapping ELISA; affinity by OCTET and ELISA (FIG. 6b, 6c)

- binding: binds
B1: mLic3 (antibody, V domains shown)
VH: EVQLVESGGGLVKPGGSLKLSCAASGFSFSDYYMYWVRQAPEKRLEWVASISFDGTYTYYTDRVKGRFTISRDNAKNNLYLQMSSLKSEDTAMYYCARDRPAWFPYWGQGTLVTVSA
VL: DVLMTQIPLSLTVSLGDQASISCRSSQSIVHSNGNTYLEWYLQRPGQSPKLLIYKVSNRFSGVPDRFSGSGSGTDFTLKISRVEAEDLGVYYCFQGSHVPLTFGAGTKLELK

- binding: binds
B2: m7C5 (antibody, V domains shown)
VH: QVQLQQSGAELARPGASVKLSCKASGYTFTSYGLSWVKQRTGQGLEWIGEIFPRSGNSYYNEKFKGKAALTADKSSSTAYMQLSSLTSEDSAVYFCARHYYSSLYYAMDYWGQGTSVTVSS
VL: DIQVTQSPASLSASVGESVSITCGTNENLYGALNWYQRKQGKSPQLLIYGATNLADGMSSRFSGSGSGRQYSLKISSLHPDDVATYYCQNVLSTPRTFGGGTKLEIK
